Assay results reported in publication PMC10226619.
No constants are given. Whether binding was seen depends on the method and setting. In cells and extracts the contact can be indirect. Here binding means that the protein was enriched with, or labelled near, the bait; the list need not be complete. For part of these data: Sequences can lack the tags named with a protein.

Protein sequences, listed by entry. Tags and fused reporters are not part of them.
UniProt P35177: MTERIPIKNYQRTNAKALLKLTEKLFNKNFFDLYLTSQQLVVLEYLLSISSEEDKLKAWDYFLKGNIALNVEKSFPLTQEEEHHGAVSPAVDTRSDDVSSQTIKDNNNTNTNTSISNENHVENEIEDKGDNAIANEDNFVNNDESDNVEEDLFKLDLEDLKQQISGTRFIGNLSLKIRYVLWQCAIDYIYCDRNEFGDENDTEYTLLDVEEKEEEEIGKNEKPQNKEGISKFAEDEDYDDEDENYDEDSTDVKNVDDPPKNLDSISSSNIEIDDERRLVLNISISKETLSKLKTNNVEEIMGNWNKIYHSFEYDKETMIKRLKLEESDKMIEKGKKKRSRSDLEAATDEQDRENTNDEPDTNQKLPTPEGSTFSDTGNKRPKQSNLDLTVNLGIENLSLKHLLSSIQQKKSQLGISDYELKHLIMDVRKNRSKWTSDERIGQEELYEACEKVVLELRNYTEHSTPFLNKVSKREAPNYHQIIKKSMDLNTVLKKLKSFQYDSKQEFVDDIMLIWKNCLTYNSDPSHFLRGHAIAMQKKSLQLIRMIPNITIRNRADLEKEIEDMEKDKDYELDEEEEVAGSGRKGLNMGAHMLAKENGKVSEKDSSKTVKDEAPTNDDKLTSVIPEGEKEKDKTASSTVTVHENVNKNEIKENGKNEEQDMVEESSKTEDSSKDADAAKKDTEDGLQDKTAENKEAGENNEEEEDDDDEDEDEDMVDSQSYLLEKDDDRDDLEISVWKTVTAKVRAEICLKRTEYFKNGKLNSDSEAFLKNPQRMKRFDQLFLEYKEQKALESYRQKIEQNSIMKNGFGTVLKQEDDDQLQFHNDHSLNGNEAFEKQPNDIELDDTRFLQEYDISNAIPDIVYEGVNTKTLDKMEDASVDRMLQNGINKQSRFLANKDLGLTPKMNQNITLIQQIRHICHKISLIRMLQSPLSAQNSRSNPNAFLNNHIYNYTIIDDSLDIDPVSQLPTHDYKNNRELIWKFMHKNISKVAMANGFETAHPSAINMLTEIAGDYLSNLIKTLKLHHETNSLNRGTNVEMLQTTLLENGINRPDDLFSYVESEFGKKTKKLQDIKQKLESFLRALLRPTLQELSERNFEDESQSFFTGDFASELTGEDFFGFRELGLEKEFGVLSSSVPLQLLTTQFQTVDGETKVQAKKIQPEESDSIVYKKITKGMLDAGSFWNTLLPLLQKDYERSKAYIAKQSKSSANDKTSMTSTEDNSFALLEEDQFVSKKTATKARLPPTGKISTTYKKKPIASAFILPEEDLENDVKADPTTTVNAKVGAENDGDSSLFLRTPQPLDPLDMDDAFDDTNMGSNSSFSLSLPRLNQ
UniProt Q03330: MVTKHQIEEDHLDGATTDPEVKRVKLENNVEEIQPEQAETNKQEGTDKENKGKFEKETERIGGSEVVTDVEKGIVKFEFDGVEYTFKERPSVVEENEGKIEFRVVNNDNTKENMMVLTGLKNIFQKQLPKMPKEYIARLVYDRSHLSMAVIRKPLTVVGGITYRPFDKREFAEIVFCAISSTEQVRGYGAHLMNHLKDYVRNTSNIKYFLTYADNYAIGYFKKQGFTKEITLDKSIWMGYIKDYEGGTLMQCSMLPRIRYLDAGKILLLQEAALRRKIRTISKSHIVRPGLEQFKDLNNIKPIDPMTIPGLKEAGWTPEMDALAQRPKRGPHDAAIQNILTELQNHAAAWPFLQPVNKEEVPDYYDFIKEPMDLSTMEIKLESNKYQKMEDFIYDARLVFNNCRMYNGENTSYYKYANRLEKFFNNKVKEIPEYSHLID

Experiments:
[1] = molecular target: Spt7 with a C-terminal TAP tag (S. cerevisiae) (UniProt P35177); assay: affinity purification with mass spectrometry; SAGA purified by Spt7-TAP from yeast with WT Ada2 (YCW14): IgG Sepharose, TEV cleavage, HiTrap Q; LC-MS/MS, total spectrum counts normalized to Spt7
[2] = molecular target: T1, Ada2 with N terminal 3× FLAG tag (wild type) (S. cerevisiae) (UniProt Q02336); assay: affinity purification with mass spectrometry; FLAG-Ada2 WT or ΔSWIRM from 2–4 mg yeast whole cell extract on ANTI-FLAG M2 affinity gel overnight at 4 °C, TBS washes; 3× FLAG peptide elution (TIMSTOF, 2 replicates) or on-resin trypsin digestion (TMT, 1 replicate); abundances normalized to Ada2
T1 sequence: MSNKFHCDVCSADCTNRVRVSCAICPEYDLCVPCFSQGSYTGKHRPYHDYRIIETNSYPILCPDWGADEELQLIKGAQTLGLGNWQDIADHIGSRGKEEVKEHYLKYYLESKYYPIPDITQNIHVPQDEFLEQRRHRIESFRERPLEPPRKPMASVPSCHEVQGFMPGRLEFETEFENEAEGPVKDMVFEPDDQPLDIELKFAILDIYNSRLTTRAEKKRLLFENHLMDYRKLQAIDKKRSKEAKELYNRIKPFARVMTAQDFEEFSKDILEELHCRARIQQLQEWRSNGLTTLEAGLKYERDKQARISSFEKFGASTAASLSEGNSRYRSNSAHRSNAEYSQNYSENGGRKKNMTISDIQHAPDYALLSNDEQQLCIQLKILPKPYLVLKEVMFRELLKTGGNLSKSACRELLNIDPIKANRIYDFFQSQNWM

[3] = molecular target: T2, Ada2 ΔSWIRM (Δ residues 353–434) with 3xFlag on the N-terminus (S. cerevisiae) (UniProt Q02336); assay: as above
T2 sequence: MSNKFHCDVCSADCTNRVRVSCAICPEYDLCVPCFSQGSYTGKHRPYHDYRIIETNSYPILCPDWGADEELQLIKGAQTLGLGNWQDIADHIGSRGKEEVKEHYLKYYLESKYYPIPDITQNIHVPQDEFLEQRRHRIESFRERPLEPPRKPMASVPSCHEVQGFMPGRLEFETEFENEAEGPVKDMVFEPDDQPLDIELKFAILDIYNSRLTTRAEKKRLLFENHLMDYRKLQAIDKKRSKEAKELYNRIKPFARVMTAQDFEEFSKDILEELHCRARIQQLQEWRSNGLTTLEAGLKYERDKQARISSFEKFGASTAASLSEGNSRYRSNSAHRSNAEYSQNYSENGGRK

Measured: binding

Gcn5 (endogenous) (from UniProt Q03330 1-439) (enzyme)
binds: all assays above
